Experimental findings from PubChem BioAssay AID1458 (National Center for Advancing Translational Sciences (NCATS), 2008) are described below.

The campaign covered roughly 210,000 compounds. About 5,900 (2.8%) were called active. Another 5% or so got no clear call; they are omitted. The call rests on the fitted dose curve; in most records, active means well fitted activation curve with a large enough effect; inconclusive means small, poorly fitted or top-dose-only effect; inactive means no such curve, though single readings can be large or run the other way. Only a part is listed here, and it is no random draw. The source gives no active or inactive call for entries shown without one.
Potency means the concentration at half of the fitted maximal effect.

A short description of the assay: qHTS Assay for Enhancers of SMN2 Splice Variant Expression. Further: nearly all actives have a fitted effect of over 55% in size. On activity change, positive = activation: % of control where 0% means no effect. The note with it: HEK293 SMN2-luciferase splicing reporter, luminescence, 30-36 h; activity change, positive = activation: at 46.1 µM (top of the series). The method, boiled down: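 HEK293 cells carry an SMN2 […]–luciferase reporter in which exon 7 inclusion puts luciferase in frame. Cells were plated 10-12 h before compound addition, then incubated 30-36 h at 37C. ONE-Glo luminescence was read; sodium butyrate at 4.5 mM final served as control.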
Background: qHTS replaces the single test concentration by a dilution series.
With `CCCCC[CH2][Hg][S]C1=C2N=CNC2NC(N)=N1` (configuration not stated), the activity change, positive = activation was inactive: -47.6% [at 9.22 µM]. Same read-out and setting: under `COc1ccccc1CCNC1CCC(C)CC1` (configuration not stated) stands 14.1%; under `CC1CC2(O)c3no[n+]([O-])c3CCC2N1O` (configuration not stated), 31%.

With `CC(=O)Nc1ccccc1OP1(=O)COc2ccccc2OC1`, the activity change, positive = activation worked out at 43.2%. Consider `CNC(=O)ON(C(=O)NC)C1N(C)C(=S)SC1(C)C` (configuration not stated), for which the activity change, positive = activation amounted to 38.2%. On the same count and under the same terms, under `Cn1c(O)c(/C=C/C=Nc2ccccc2)c(=O)n(C)c1=O` stands 27.1%; under `CCOC(=O)c1c(C)n(CC(O)CN2CCOCC2)c2cc(Br)c(OC)cc12` (configuration not stated), 38.5%.

Turning to `CC(Cc1ccccc1)NC(=O)NC(C)Cc1ccccc1` (configuration not stated), the activity change, positive = activation was 65.4%. Same read-out and setting: the same measure for `CC(=O)OC1C(=O)[C@]2(C)C(O)CC3OC[C@]3(OC(C)=O)C2[C@@H](OC(=O)c2ccccc2)[C@]2(O)CC(O)C(C)=C1C2(C)C` (some centres not stated): -53%.

For the compound `O=C(Cn1ncc2c3ccccc3n(Cc3ccc(F)cc3)c2c1=O)N1CCC2(CC1)OCCO2`, the “activity change, positive = activation” value was inactive: -34.2%. Regarding `O=Cc1cn(CCCOc2ccccc2)c2ccccc12`, the “activity change, positive = activation” value was inactive: -60.6%. For the compound `CC[C@]1([C@H]2O[C@@H]([C@@H]3O[C@](O)(CO)[C@@H](C)C[C@H]3C)C[C@H]2C)CC[C@@H]([C@]2(C)CC[C@@]3(C[C@@H](O)[C@@H](C)[C@@H]([C@H](C)[C@H](OC)[C@H](C)C(=O)O)O3)O2)O1`, the “activity change, positive = activation” value was inactive: -29.3% [at 20.6 µM]. Consider `CCNC(=O)O/N=C(\C)c1sc(-c2ccc(Cl)cc2)nc1C`, for which the “activity change, positive = activation” value is inactive: 28.6%. Still for that read-out and setting: under `CC(=O)N1CCN(c2ccc(OCC3CO[C@@](Cn4ccnc4)(c4ccc(Cl)cc4Cl)O3)cc2)CC1` (some centres not stated) stands inactive: -68.6%. Consider `CN[C@@H]1C[C@@]2(C)O[C@@H]([C@@H]1OC)n1c3ccccc3c3c4c(c5c6ccccc6n2c5c31)C(=O)NC4`, for which the activity change, positive = activation is -99.4%. The same measure, in the same setting: under `Cc1cccc(C2=NCC(=O)N(CC(=O)NCc3ccco3)c3sc4c(c32)CCCC4)c1` stands -32.8%. Still for that read-out and setting: the same measure for `CCC(=O)OC1(c2cccc(C)c2)CC(C)N(C)CC1C` (configuration not stated): 31%. Same read-out and setting: the same measure for `CC(Oc1ccc(Br)cc1)C(=O)N(Cc1nc(-c2ccccc2)no1)C(C)C` (configuration not stated): inactive: -42.7%; for `CCCCc1nc2ccccc2c(=O)n1-c1ccc(Cl)cc1[N+](=O)[O-]`: 2.62%; for `CC(=O)Nc1ccccc1C(=O)OCC(=O)c1ccc2ccccc2c1`: -35.5%. As to `NC1=NC([S][Hg][c]2ccc(N)cc2)c2ncn([C@@H]3O[C@H](CO)[C@@H](O)[C@@H]3O)c2N1` (some centres not stated), the activity change, positive = activation is inactive: -104% [at 9.22 µM]. As to `Cc1cc(C=C2C(=O)NC(=O)NC2=O)c(C)n1-c1ccncc1`, the activity change, positive = activation was -6.71%. Consider `CCCCCCn1c(O)c(C=Nc2c(C)n(C)n(-c3ccccc3)c2=O)c(=O)[nH]c1=O`, for which the activity change, positive = activation was determined as 15%.

Regarding `CCCCCCN=C(CC)c1c(O)n(CCCC)c(=O)[nH]c1=O`, the activity change, positive = activation was -43.6%. Still for that read-out and setting: the same measure for `COc1cc2c(cc1OC)-c1c(OC)c(OC)c(OC)c3ccnc(c13)C2=O`: inactive: -44.4%. For the compound `CCN1CCN(c2nc3ccccc3s2)CC1`, the Potency is active: 11.2 µM. With `CCN(CC)S(=O)(=O)c1ccc(NN=C(C#N)C#N)cc1`, the activity change, positive = activation was -44.3%. As to `N#CC(C#N)=Cc1ccc(-c2ccccc2F)o1`, the activity change, positive = activation is -37.9%. The same measure, in the same setting: the same measure for `CC1CN(O)C2CCc3nonc3C12O` (configuration not stated): 31.4%.

As to `CCCNS(=O)(=O)c1ccc(OCC(=O)N2CCN(Cc3ccccc3)CC2)cc1`, the activity change, positive = activation was -68.6%. On to `Cc1cccn2c(=O)c3c(nc12)N1CCC(Cc2ccccc2)CC1C1(C3)C(=O)N(C)C(=O)N(C)C1=O` (configuration not stated), for which the activity change, positive = activation was -42.2%.

Consider `Cc1cccc(-n2c(/C=C/c3ccc([N+](=O)[O-])o3)nc3ccccc3c2=O)c1`, for which the activity change, positive = activation was -84%. With `COc1ccc2c(c1)[nH]c1c(C)nccc12`, the Potency result is “inactive”. On the same count and under the same terms, under `COC(=O)C1=C(C)NC(C)=C(C(=O)OC)C1c1ccccc1[N+](=O)[O-]` stands “inactive”. Take `COc1ccc(/C=C2/C(=O)N(Cc3ccco3)C(=O)N(C(C)C)C2=O)cc1`: the activity change, positive = activation came out at 2.11%. For the compound `O=C1NC(=O)N(Cc2ccccc2)C(=O)/C1=C\N1CCCc2ccccc21`, the activity change, positive = activation worked out at 8.28%.

Turning to `CNC(=O)COC(=O)c1ccc(-c2nc3ccccc3s2)s1`, the Potency was active: 15.8 µM. `O=C1C(=O)c2ccccc2-c2ccccc21`: the “activity change, positive = activation” value was inactive: -106%. Take `CN1C2CCC1CC(OC(=O)CCN1CCCC1)C2` (configuration not stated): the activity change, positive = activation was found to be 34.6%. For the compound `Cc1ccc[n+](CC(O)Cn2c3ccccc3c3ccccc32)c1` (configuration not stated), the activity change, positive = activation was 15.7%.

In the case of `Cc1cc(C)cc(-n2c(C)cc(/C=C3\C(=O)NC(=O)N(C)C3=O)c2C)c1`, the “activity change, positive = activation” value is inactive: 10.7%. Regarding `CC(C)C1C(=O)N2CCC[C@H]2[C@]2(O)O[C@](NC(=O)[C@@H]3C=C4c5cccc6[nH]cc(c56)C[C@H]4N(C)C3)(C(C)C)C(=O)N12` (some centres not stated), the “activity change, positive = activation” value was inactive: -2.57%. Regarding `COc1ccc2nc(NC3=NCCN3)sc2c1`, the Potency is active: 10 µM. For `O=C1NC(=O)C2(Cc3ccccc3N3CCCC32)C(=O)N1c1ccc(Cl)cc1` (configuration not stated), the activity change, positive = activation was 39.2%. The same measure, in the same setting: under `O=C(Oc1ccc2ccc(OC(=O)N3CCOCC3)cc2c1)N1CCOCC1` stands inactive: -33.2%; under `CC(=O)OC1CCC23C(=O)OC45CCC(C6=CC(=O)OC6)C4(C)CCC2C5CCC3(O)C1` (configuration not stated), -88.9%; under `Cc1cc(N2CCCCC2)ccc1C=C1C(=O)N(C)C(=S)N(C)C1=O`, inactive: -53.6%.

For the compound `S=C=Nc1ccccn1`, the activity change, positive = activation was found to be 41.7%. In the case of `CCCCc1ccc2[nH]cc(CCN)c2c1`, the activity change, positive = activation was -57.8%. `CC(=O)Oc1ccccc1C(=O)Nc1ncc([N+](=O)[O-])s1`: the Potency is active: 12.6 µM. Take `CN1CCN(/N=C/c2c(O)n(C)c(=O)n(C)c2=O)CC1`: the activity change, positive = activation is -42.9%. The same measure, in the same setting: under `CN1CCC(O)(c2ccccc2)C2CCCC21` (configuration not stated) stands 47.5%; under `CN(CCc1ccc(Cl)c(Cl)c1)[C@@H]1CCCC[C@@H]1N1CCCC1`, inactive: -52.3%; under `CCCCn1c(=O)c(C=Nc2cccnc2Cl)c(O)n(CCCCl)c1=O`, 17.2%.

For the compound `CNC(=O)c1cccn(Cc2cc(C(F)(F)F)cc(C(F)(F)F)c2)c1=O`, the “activity change, positive = activation” value was inactive: -68.1%. For the compound `CC(=O)C1CCC2C3CCC4=CC(=O)CC[C@@]4(C)C3CC[C@]12C` (some centres not stated), the “activity change, positive = activation” value is inactive: -69%. The same measure, in the same setting: the same measure for `CC(C)(C)OC(=O)N1CC(O)CC1C(=O)OCC(=O)c1ccc(-c2ccccc2)cc1` (configuration not stated): inactive: -43%; for `CSc1ccc(CNC2CN3CCC2CC3)cc1` (configuration not stated): 2.05%; for `O=[As](O)(O)c1ccc(Cc2ccc([As](=O)(O)O)cc2)cc1`: inactive: -35.3% [at 9.22 µM].

For `COc1ccc(Cc2nccc3cc(OC)c(OC)cc23)cc1OC`, the Potency entry is “inactive”. Consider `CCN1/C(=C\C=C\C2=[N+](CC)c3ccccc3C2(C)C)C(C)(C)c2ccccc21`, for which the “activity change, positive = activation” value was inactive: -69.7%.

For the compound `Cc1ccccc1NC(=S)NC(NC(=O)CF)C(Cl)(Cl)Cl` (configuration not stated), the activity change, positive = activation was 35.9%. The same measure, in the same setting: under `CC(C)(c1ccc(OCC2CO2)cc1)c1ccc(OCC2CO2)cc1` (configuration not stated) stands -94.7%; under `CCOC(=O)c1cc2c(cn1)[nH]c1ccccc12`, inactive: 24.9%; under `COC(=O)C[C@]1(C(=O)OC)CN(C#N)N(c2ccc(Cl)cc2)C12c1ccccc1-c1ccccc12`, inactive: -116%. The same measure, in the same setting: the same measure for `CC(=O)c1ccccc1NC(=O)C1C2CCC(O2)C1C(=O)O` (configuration not stated): 42.5%; for `CCC(=NCCO)c1c(O)n(-c2ccccc2)c(=O)[nH]c1=O`: 31%.
